Some of these results come from one statement about several compounds together.
The molecules below were run on green peach aphid (Myzus persicae) (assay: not given). Settings: 50 ppm, nymphs, 5th day after the application.
Type: in vivo
Description: Test on effect against green peach aphid (Myzus persicae)
A Japanese radish leaf was inserted in a test tube in which water was put, and 5 adults of green peach aphid were released on the leaf. On the next day, the adults were removed, and the number of nymphs parasitic on the leaf was counted as the number of tested nymphs, and then the leaf was dipped in a chemical solution of a test compound at a concentration of 200 ppm or 50 ppm. After the chemical solution dried in air, the leaf was left in a constant temperature chamber with lighting at 25° C. On the 5th day after the application, the number of dead nymphs was counted, and the mortality (%) was calculated by the following formula. Nymphs that dropped from the leaf or nymphs that were moribund were counted as dead nymphs.
Mortality (%)=[(Number of dead nymphs)/(number of tested nymphs)]x100

| SMILES | mortality [%] |
| --- | --- |
| CCc1nn(-c2c(Cl)cc(C(F)(F)F)cc2Cl)c(=O)c(-n2cnc(Cl)n2)c1O [6-10] | ≥ 90 |

What follows are molecules tested on two-spotted spider mite (Tetranychus urticae) (assay: Test Example 3: effects against two-spotted spider mite, kidney bean leaf dip). Settings: 200 ppm, adults, 3rd day after the application.
Type: in vivo
In short: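 Kidney bean leaves carrying about 20 adult mites dipped in test solution at 800, 200 or 50 ppm, air-dried, kept lit at 25° C. Dead adults, including dropped or moribund ones, counted on day 3 to give mortality (%).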

| SMILES | mortality [%] |
| --- | --- |
| CCc1nn(-c2ccc(C(F)(F)F)cc2C)c(=O)c(-n2cc(C(F)(F)F)c(Br)n2)c1O [2-497] | ≥ 80 |
| CCc1nn(-c2c(Cl)cc(S(C)(=O)=O)cc2Cl)c(=O)c(-n2ccc(Cl)n2)c1O [2-498] | ≥ 80 |
| C=Cc1cc(C(F)(F)F)cc(C)c1-n1nc(C)c(O)c(-n2cc(F)cn2)c1=O [2-502] | ≥ 80 |
| C=Cc1cc(C(F)(F)F)cc(C)c1-n1nc(C(C)C)c(O)c(-n2cc(F)cn2)c1=O [2-503] | ≥ 80 |
| CCc1cc(C(F)(F)F)cc(C)c1-n1nc(C)c(O)c(-n2ccc(Cl)n2)c1=O [2-504] | ≥ 80 |
| CCc1cc(C(F)(F)F)cc(C)c1-n1nc(C(C)C)c(O)c(-n2ccc(Cl)n2)c1=O [2-505] | ≥ 80 |
| CCc1cc(C(F)(F)F)cc(C)c1-n1nc(C)c(O)c(-n2cc(F)cn2)c1=O [2-506] | ≥ 80 |
| CCc1cc(C(F)(F)F)cc(C)c1-n1nc(C(C)C)c(O)c(-n2cc(F)cn2)c1=O [2-507] | ≥ 80 |
| Cc1cc(C(F)(F)F)cc(C)c1-n1nc(C(F)(F)F)c(O)c(-n2cc(Cl)cn2)c1=O [2-509] | ≥ 80 |
| CCc1nn(-c2c(C)cc(C(F)(F)F)cc2C)c(=O)c(-n2ccc(OCC(F)(F)F)n2)c1O [2-512] | ≥ 80 |
| Cc1ccn(-c2c(O)c(C(C)C)nn(-c3c(Cl)cc(C(F)(F)F)cc3Cl)c2=O)n1 [2-513] | ≥ 80 |
| Cc1cnn(-c2c(O)c(C(C)(C)C)nn(-c3c(C)cc(C(F)(F)F)cc3C)c2=O)c1 [2-521] | ≥ 80 |
| Cc1ccn(-c2c(O)c(C(C)(C)C)nn(-c3c(C)cc(C(F)(F)F)cc3C)c2=O)n1 [2-525] | ≥ 80 |
| Cc1ccn(-c2c(O)c(C3CC3)nn(-c3c(C)cc(C(F)(F)F)cc3C)c2=O)n1 [2-526] | ≥ 80 |
| CCc1nn(-c2c(C)cc(C(F)(F)F)cc2C)c(=O)c(-n2cc(C)c(Cl)n2)c1O [2-533] | ≥ 80 |
| CCc1nn(-c2c(C)cc(C(F)(F)F)cc2C)c(=O)c(-n2cc(C)c(C(F)(F)F)n2)c1O [2-534] | ≥ 80 |
| Cc1cc(C(F)(F)F)cc(C)c1-n1nc(C(C)(C)C)c(O)c(-n2cc(F)cn2)c1=O [2-536] | ≥ 80 |
| Cc1cc(C(F)(F)F)cc(C)c1-n1nc(C2CC2)c(O)c(-n2cc(Cl)cn2)c1=O [2-537] | ≥ 80 |
| Cc1cc(C(F)(F)F)cc(C)c1-n1nc(C2CC2)c(O)c(-n2cc(Br)cn2)c1=O [2-540] | ≥ 80 |
| Cc1cc(C(F)(F)F)cc(C)c1-n1nc(C(C)(C)C)c(O)c(-n2cc(Br)cn2)c1=O [2-541] | ≥ 80 |
| CCc1nn(-c2c(C)cc(C(F)(F)F)cc2C)c(=O)c(-n2ccc(C(F)F)n2)c1O [2-543] | ≥ 80 |
| Cc1cn(-c2c(O)c(C3CC3)nn(-c3c(C)cc(C(F)(F)F)cc3C)c2=O)nc1C(F)(F)F [2-544] | ≥ 80 |

| SMILES | mortality [%] |
| --- | --- |
| Cc1cc(C(F)(F)F)cc(C)c1-n1nc(C)c(O)c(-n2cc(C(F)(F)F)cn2)c1=O [2-545] | ≥ 80 |
| CCc1nn(-c2c(C)cc(C(F)(F)F)cc2C)c(=O)c(-n2cc(C(F)(F)F)cn2)c1O [2-546] | ≥ 80 |
| Cc1cc(C(F)(F)F)cc(C)c1-n1nc(C(C)C)c(O)c(-n2cc(C(F)(F)F)cn2)c1=O [2-547] | ≥ 80 |
| Cc1cc(C(F)(F)F)cc(C)c1-n1nc(C2CC2)c(O)c(-n2cc(C(F)(F)F)cn2)c1=O [2-548] | ≥ 80 |
| Cc1cc(C(F)(F)F)cc(C)c1-n1nc(C(C)(C)C)c(O)c(-n2cc(C(F)(F)F)cn2)c1=O [2-549] | ≥ 80 |
| CCc1nn(-c2c(C)cc(C(F)(F)F)cc2C)c(=O)c(-n2cc(F)cn2)c1[O-].[Na+] [2-554] | ≥ 80 |
| CCc1nn(-c2c(C)cc(C(F)(F)F)cc2C)c(=O)c(-n2cnc(C(F)(F)F)n2)c1O [6-5] | ≥ 80 |
| CCc1nn(-c2c(C)cc(OC(F)(F)F)cc2C)c(=O)c(-n2cnc(C(F)(F)F)n2)c1O [6-7] | ≥ 80 |
| CCc1nn(-c2c(Cl)cc(C(F)(F)F)cc2Cl)c(=O)c(-n2cnc(Cl)n2)c1O [6-10] | ≥ 80 |
| CCc1nn(-c2c(Cl)cc(C(F)(F)F)cc2Cl)c(=O)c(-n2cnc(Br)n2)c1O [6-12] | ≥ 80 |
| CCc1nn(-c2c(Br)cc(C(F)(F)F)cc2Br)c(=O)c(-n2cnc(Cl)n2)c1O [6-13] | ≥ 80 |
| CCc1nn(-c2c(Br)cc(C(F)(F)F)cc2Br)c(=O)c(-n2cnc(Br)n2)c1O [6-14] | ≥ 80 |
| CCc1nn(-c2c(C)cc(C(F)(F)F)cc2C)c(=O)c(-n2cnc(Cl)n2)c1O [6-18] | ≥ 80 |
| CCc1nn(-c2c(C)cc(OC(F)(F)F)cc2C)c(=O)c(-n2cnc(Cl)n2)c1O [6-21] | ≥ 80 |
| CCc1nn(-c2c(C)cc(Cl)cc2C)c(=O)c(-n2cnc(Cl)n2)c1O [6-22] | ≥ 80 |
| CCc1nn(-c2c(C)cc(Br)cc2C)c(=O)c(-n2cnc(Cl)n2)c1O [6-23] | ≥ 80 |
| CCc1cc(C(F)(F)F)cc(C)c1-n1nc(CC)c(O)c(-n2cnc(Cl)n2)c1=O [6-41] | ≥ 80 |
| CCc1nn(-c2c(C)cc(C(F)(F)F)cc2C)c(=O)c(-n2cncn2)c1O [6-45] | ≥ 80 |
| CCc1nn(-c2c(Cl)cc(C(F)(F)F)cc2Cl)c(=O)c(-n2cncn2)c1O [6-47] | ≥ 80 |
| CCc1nn(-c2c(C)cc(C(F)(F)F)cc2C)c(=O)c(-n2cnc(F)n2)c1O [6-49] | ≥ 80 |
| CCc1nn(-c2c(C)cc(C(F)(F)F)cc2C)c(=O)c(-n2cnc(Br)n2)c1O [6-51] | ≥ 80 |
| CCc1nn(-c2c(C)cc(OC(F)(F)F)cc2C)c(=O)c(-n2cnc(Br)n2)c1O [6-64] | ≥ 80 |

| SMILES | mortality [%] |
| --- | --- |
| CCc1nn(-c2c(C)cc(Cl)cc2C)c(=O)c(-n2cnc(Br)n2)c1O [6-67] | ≥ 80 |
| Cc1cc(C(F)(F)F)cc(C)c1-n1nc(C)c(O)c(-n2cnc(F)n2)c1=O [6-74] | ≥ 80 |
| Cc1cc(C(F)(F)F)cc(C)c1-n1nc(C)c(O)c(-n2cnc(Cl)n2)c1=O [6-75] | ≥ 80 |
| Cc1cc(C(F)(F)F)cc(C)c1-n1nc(C(C)C)c(O)c(-n2cnc(Cl)n2)c1=O [6-80] | ≥ 80 |
| Cc1cc(C(F)(F)F)cc(C)c1-n1nc(C2CC2)c(O)c(-n2cnc(Cl)n2)c1=O [6-83] | ≥ 80 |
| CCCc1nn(-c2c(C)cc(C(F)(F)F)cc2C)c(=O)c(-n2cnc(Cl)n2)c1O [6-84] | ≥ 80 |
| COCc1nn(-c2c(C)cc(C(F)(F)F)cc2C)c(=O)c(-n2cnc(Cl)n2)c1O [6-89] | ≥ 80 |
| Cc1cc(C(F)(F)F)cc(C)c1-n1nc(C(C)(C)C)c(O)c(-n2cnc(Cl)n2)c1=O [6-102] | ≥ 80 |
| Cc1cc(C(F)(F)F)cc(C)c1-n1nc(C2CCC2)c(O)c(-n2cnc(Cl)n2)c1=O [6-104] | ≥ 80 |
| CCc1nn(-c2c(C)cc(C(F)(F)F)cc2C)c(=O)c(-n2cnc(C(F)F)n2)c1O [6-105] | ≥ 80 |
| C=Cc1cc(C(F)(F)F)cc(C)c1-n1nc(C)c(O)c(-n2cnc(Cl)n2)c1=O [6-106] | ≥ 80 |
| C=Cc1cc(C(F)(F)F)cc(C)c1-n1nc(C(C)C)c(O)c(-n2cnc(Cl)n2)c1=O [6-107] | ≥ 80 |
| CCc1cc(C(F)(F)F)cc(C)c1-n1nc(C)c(O)c(-n2cnc(Cl)n2)c1=O [6-108] | ≥ 80 |
| CCc1cc(C(F)(F)F)cc(C)c1-n1nc(C(C)C)c(O)c(-n2cnc(Cl)n2)c1=O [6-109] | ≥ 80 |
| Cc1cc(C(F)(F)F)ccc1-n1nc(C)c(O)c(-n2cnc(Cl)n2)c1=O [6-111] | ≥ 80 |
| Cc1cc(C(F)(F)F)cc(C)c1-n1nc(C(C)(C)C)c(O)c(-n2cnc(C(F)F)n2)c1=O [6-113] | ≥ 80 |
| Cc1cc(C(F)(F)F)ccc1-n1nc(C(C)C)c(O)c(-n2cnc(Cl)n2)c1=O [6-116] | ≥ 80 |
| Cc1cc(C(F)(F)F)cc(C)c1-n1nc(C(C)C)c(O)c(-n2cnc(Br)n2)c1=O [6-119] | ≥ 80 |
| Cc1ncn(-c2c(O)c(C(C)C)nn(-c3c(C)cc(C(F)(F)F)cc3C)c2=O)n1 [6-120] | ≥ 80 |
| CC(C)c1nn(-c2c(Br)cc(C(F)(F)F)cc2Br)c(=O)c(-n2cnc(Cl)n2)c1O [6-125] | ≥ 80 |
| Cc1cc(C(F)(F)F)cc(C)c1-n1nc(C(C)(C)C)c(O)c(-n2cnc(Br)n2)c1=O [6-129] | ≥ 80 |

Same assay, conditions: 800 ppm, adults, 3rd day after the application

| SMILES | mortality [%] |
| --- | --- |
| CCc1nn(-c2ncc(C(F)(F)F)cc2F)c(=O)c(-n2cc([N+](=O)[O-])c(Br)n2)c1O [1-232] | ≥ 80 |

What follows are molecules tested on brown planthopper (Nilaparvata luqens) (assay: not given). Settings: 50 ppm, second to third instar nymphs, 5th day after release.
Type: in vivo
Description: Test on effect against brown planthopper (Nilaparvata luqens) Rice seedlings were dipped in a chemical solution of a test compound at a concentration of 200 ppm or 50 ppm. After the chemical solution dried in air, the root was wrapped with wet adsorbent cotton, and the seedlings were put into a test tube. About 10 second to third instar nymphs of brown planthopper were released, the test tube was covered with a gauze, and the test tube was left in a constant temperature chamber with lighting at 25° C. On the 5th day after release, the number of dead nymphs was counted, and the mortality (%) was calculated by the following formula.
Mortality (%)=[(number of dead nymphs)/(number of released nymphs)]×100

| SMILES | mortality [%] |
| --- | --- |
| CCc1nn(-c2ncc(C(F)(F)F)cc2Br)c(=O)c(-n2cc([N+](=O)[O-])c(Cl)n2)c1O [1-227] | ≥ 90 |
| CCc1nn(-c2ncc(C(F)(F)F)cc2F)c(=O)c(-n2cc([N+](=O)[O-])c(Cl)n2)c1O [1-231] | ≥ 90 |
| CCc1nn(-c2ncc(C(F)(F)F)cc2F)c(=O)c(-n2cc([N+](=O)[O-])c(Br)n2)c1O [1-232] | ≥ 90 |
| Cc1cc(C(F)(F)F)cc(C)c1-n1nc(C(C)C)c(O)c(-n2nnc(Br)c2Br)c1=O [8-7] | ≥ 90 |

From patent US20250194601A1, “PYRIDAZINONE COMPOUND OR SALT THEREOF AND PEST CONTROL AGENT CONTAINING IT” (ISHIHARA SANGYO KAISHA, LTD., priority 2022, published 2025)
